Values from PubChem BioAssay AID602196 (INSERM, 2012)
This is an unselected part of about 23,000 reagents tested. 455 of them (2%) were called active. 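Active includes both protection and sensitisation; some change values fall well beyond the stated -50 to +50 range.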 No sequences are given here. Not stated in the record: the amount of reagent.

Test: 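Knock-downs that protect lung cancer cells from cisplatin or sensitise them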
Cells: human A549 lung cancer cells
Knock-down reagent: siRNA pair against human genes
Duration: 48 h transfection before cisplatin; time from cisplatin to read-out not stated
Conditions: cisplatin at a dose killing half of control-siRNA cells; exact dose and duration not given
Measurement: 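Cisplatin cell death as a shift from the 50% death seen with control siRNA; siRNAs toxic or growth-blocking alone scored 0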
Scale: two-siRNA summed score (-2 to +2): higher = both siRNAs protect from cisplatin killing; -2 means both sensitise; mean protection from cisplatin (shift in death) and protection from cisplatin (shift in death), siRNA C and protection from cisplatin (shift in death), siRNA D: higher = protection from cisplatin killing
Hit rule: 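Each siRNA scores 0 if harmful alone by LDH or WST-1, otherwise +1 if it reduces and -1 if it increases cisplatin killing; a gene is active when both siRNAs agree (sum +2 or -2)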
Meaning of the calls: active = both siRNAs shift cisplatin killing the same way; inactive = no consistent shift, or siRNA harmful alone

gene	two-siRNA summed score (-2 to +2)	mean protection from cisplatin (shift in death) (%)	protection from cisplatin (shift in death), siRNA C (%)	protection from cisplatin (shift in death), siRNA D (%)	Call
ALKBH4	0	5.9	8.8	2.9	inactive
FTH1	-1	-10.2	0.9	-21.4	inactive
CACNG8	0	13	10.8	15.3	inactive
LOC387709	0	-1.4	-6.4	3.7	inactive
ARID1B	0	9.9	9.3	10.4	inactive
PDE10A	0	4.9	-14.7	24.6	inactive
LOC441905	0	4.1	12.4	-4.2	inactive
STK26	1	18.1	41.3	-5.1	inactive
DYNC1I2	0	8.4	20.8	-4	inactive
LGALS17A	0	2.6	-0.7	6	inactive
TUSC8	0	8.7	13.4	3.9	inactive
LOC440591	0	16.6	11.4	21.8	inactive
LOC399737	1	7.8	24.5	-8.9	inactive
GTF2A1	1	14.2	24.6	3.8	inactive
CGB3	0	10.9	9.1	12.7	inactive
KIAA1937	0	14	13	14.9	inactive
COL27A1	0	-0.3	-5.6	5.1	inactive
PCDHGA10	0	2.5	12.3	-7.3	inactive
TRMT9B	-1	-4.9	-14.3	4.6	inactive
ZNF45	1	4.1	-2.1	10.3	inactive
VASH1	0	9	23.9	-5.9	inactive
STIM1	1	16.3	24.7	7.9	inactive
ZNF264	0	5.7	13.3	-1.9	inactive
GCNT2	1	2.3	13.2	-8.5	inactive
LOC344471	0	13.9	27.7	0.1	inactive
UNC13A	-2	-22.9	-22.6	-23.3	active
LOC284611	0	3.2	3.2	3.3	inactive
LOC441612	0	12.8	16.5	9.1	inactive
COX20	0	4.8	1.9	7.6	inactive
SHISA2	0	8.5	8.7	8.2	inactive
MEIS2	1	14.6	9.4	19.7	inactive
SNAI2	0	-0.2	2.2	-2.7	inactive
BCAS1	0	7	1.8	12.3	inactive
SDHB	0	-0.2	-7.8	7.4	inactive
LOC219414	1	3.4	-2	8.8	inactive
LOC442717	0	8.5	9.8	7.2	inactive
LOC339210	0	8.4	8.6	8.3	inactive
MAPKAPK5-AS1	0	-17.8	-23.5	-12	inactive
METTL8	0	2.6	2.7	2.4	inactive
LOC440885	1	14.9	19.6	10.2	inactive
CCDC97	0	4.5	6.1	2.9	inactive
MGC16597	0	2.4	-1	5.8	inactive
GP1BB	1	20.8	32.2	9.4	inactive
SLC71A1	0	-2.8	-7.9	2.4	inactive
OCLM (retired record)	2	17.5	13.2	21.8	active
HOXC6	-1	-5.5	-22.9	11.9	inactive
CRTAM	0	0.2	-5.1	5.5	inactive
CENPA	0	-0.4	4.4	-5.2	inactive
NR2E3	0	-5	-5.1	-4.9	inactive
LOC401021	0	11.5	20.6	2.4	inactive
C2orf66	1	10.2	8.4	12	inactive
CERS2	1	7.5	-1.1	16.1	inactive
ALDOA	0	6.2	-0.9	13.4	inactive
AKAP8	1	21.9	35.8	8	inactive
RAP1A	1	2.5	11.3	-6.3	inactive
LOC145660	0	-1.1	8.7	-10.9	inactive
CD109	1	9.4	14.7	4.1	inactive
ACSM3	0	22.2	25.1	19.3	inactive
IL23A	0	-14.3	-18	-10.6	inactive
RNPC3	0	1.2	4.1	-1.8	inactive
LOC339778	0	13.9	13.9	13.8	inactive
FPGS	0	-3.9	-4.8	-3	inactive
FBXL20	-1	-9	-14.7	-3.4	inactive
FGD5	0	13.2	6.3	20	inactive
LOC391813	0	11.3	-6.4	28.9	inactive
SLC22A12	-1	-11.1	1.4	-23.7	inactive
DRAM2	0	-1.4	0.7	-3.4	inactive
ASB7	1	13.8	24.9	2.6	inactive
SCRT1	0	-7.9	-6.6	-9.3	inactive
LOC157693	1	12.2	5.1	19.3	inactive
MATCAP2	0	6.5	0.4	12.7	inactive
TM4SF1	0	-2.4	4.8	-9.6	inactive
CHRNG	-1	-11.4	-23.7	1	inactive
